Data from PMC12579213.

By UniProt entry, the sequences of proteins in these tests, tags left out. Where a name states a change or a piece, a line headed by the entry shows the natural chain unless it says otherwise.
UniProt P60953: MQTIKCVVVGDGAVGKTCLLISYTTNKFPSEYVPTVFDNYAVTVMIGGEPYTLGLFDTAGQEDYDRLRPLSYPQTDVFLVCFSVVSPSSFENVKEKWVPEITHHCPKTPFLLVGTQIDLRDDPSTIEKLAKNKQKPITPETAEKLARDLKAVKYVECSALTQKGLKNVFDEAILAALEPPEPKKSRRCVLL
UniProt P61586: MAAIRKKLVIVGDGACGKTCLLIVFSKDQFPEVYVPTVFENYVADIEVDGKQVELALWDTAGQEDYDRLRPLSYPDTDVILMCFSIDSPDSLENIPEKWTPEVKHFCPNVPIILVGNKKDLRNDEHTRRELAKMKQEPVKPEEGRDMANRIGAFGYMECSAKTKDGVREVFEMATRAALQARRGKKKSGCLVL

Target: DsRed-Cdc42h (Q61L, ΔCAAX) (UniProt P60953)
Test: INSPECT (co-condensation of proteins fused to a tetrameric RFP and to ferritin, imaged in living cells); DsRed-small GTPase (bait) and effector-CFP-FT (prey) co-transfected; co-localized condensates counted; efficiency, SNR and protein interaction index (PI)

Row | Binder | binding
1 | REMLRDPEMRNKLISNPTNFNHIAHMGPGDGIQILK (domain or fragment, UniProt Q5VT25 1558-1593) [RBD_(MRCKα)-CFP-FT] | binds
2 | RBD_(DIAPH3)-CFP-FT (domain or fragment, UniProt Q9NSV4 118-287) SENELLELFEKMMEDMNLNEDKKAPLREKDFSIKKEMVMQYINTASKTGSLKRSRQISPQEFIHELKMGSADERLVTCLESLRVSLTSNPVSWVESFGHEGLGLLLDILEKLISGKIQEKVVKKNQHKVIQCLKALMNTQYGLERIMSEERSLSLLAKAVDPRHPNMMTD | binds
3 | RBD_(DIAPH2)-CFP-FT (domain or fragment, UniProt O60879 88-272) PAAQPLYDERSLNLSEKEVLDLFEKMMEDMNLNEEKKAPLRNKDFTTKREMVVQYISATAKSGGLKNSKHECTLSSQEYVHELRSGISDEKLLNCLESLRVSLTSNPVSWVNNFGHEGLGLLLDELEKLLDKKQQENIDKKNQYKLIQCLKAFMNNKFGLQRILGDERSLLLLARAIDPKQPNMM | binds
4 | RBD_(DAAM2)-CFP-FT (domain or fragment, UniProt Q86T65 41-229) PIPNAEELNIRFAELVDELDLTDKNREAMFALPPEKKWQIYCSKKKEQEDPNKLATSWPDYYIDRINSMAAMQSLYAFDEEETEMRNQVVEDLKTALRTQPMRFVTRFIELEGLTCLLNFLRSMDHATCESRIHTSLIGCIKALMNNSQGRAHVLAQPEAISTIAQSLRTENSKTKVAVLEILGAVCLV | binds

Second part, the binder after the results:

Row | binding | Binder
5 | binds | ISGPSNFEHRVHTGFDPQEQKFTGLPQQWHSLLADTANRPKPMVD (domain or fragment, UniProt Q9P286 11-55) [CRIB_(PAK7)-CFP-FT]
6 | binds | ISNPTNFNHVAHMGPGDGMQVLMDLPLSAVPPSQEER (domain or fragment, UniProt Q9Y5S2 1583-1619) [RBD_(MRCKβ)-CFP-FT]
7 | binds | EISAPQNFQHRVHTSFDPKEGKFVGLPPQWQNILDTLRRPKPVVD (domain or fragment, UniProt Q9NQU5 11-55) [CRIB_(PAK6)-CFP-FT]
8 | binds weakly | RBD_(ROCK2)-CFP-FT (domain or fragment, UniProt O75116 964-1045) KDATIASLEETNRTLTSDVANLANEKEELNNKLKDVQEQLSRLKDEEISAAAIKAQFEKQLLTERTLKTQAVNKLAEIMNRK
9 | binds | EISAPSNFEHRVHTGFDQHEQKFTGLPRQWQSLIEESARRPKPLVD (domain or fragment, UniProt O96013 10-55) [CRIB_(PAK4)-CFP-FT]

Target: DsRed-RhoA (Q63L, ΔCAAX) (UniProt P61586)
Test: as above

Row | binding | Binder
10 | binds | RBD_(ROCK2)-CFP-FT (domain or fragment, UniProt O75116 964-1045) KDATIASLEETNRTLTSDVANLANEKEELNNKLKDVQEQLSRLKDEEISAAAIKAQFEKQLLTERTLKTQAVNKLAEIMNRK

No constants are given. Whether binding was seen depends on the method and setting. Binding can be weak; no strength is given. Where a sequence is shown, tags or fusion partners need not be part of it.
